The target in this assay is T1, RhoGDI2Δ20, GAL4 DNA binding domain fusion (human) (UniProt P52566).
T1 sequence: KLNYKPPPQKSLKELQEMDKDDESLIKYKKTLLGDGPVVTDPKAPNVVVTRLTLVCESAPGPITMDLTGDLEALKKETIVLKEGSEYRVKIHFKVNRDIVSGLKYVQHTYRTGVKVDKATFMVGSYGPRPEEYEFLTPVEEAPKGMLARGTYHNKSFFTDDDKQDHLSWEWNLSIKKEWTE
Briefly: two-hybrid; yeast strain AH109; RhoGDI2(WT) or RhoGDI2Δ20 in pGBK7 (GAL4 BD), Rac1 or FLNA/Rod2 in pGADT7 (AD); growth on SD medium lacking Leu, Trp and His; screening and pairwise test.

No constants are given. Whether binding was seen depends on the method and setting. A result given as binding can be weak or reduced; the word gives no strength. Where a sequence is shown, tags or fusion partners need not be part of it.

As for “Rod-2 domain of Filamin A (FLNA/Rod-2), activation domain fusion (human) (domain or fragment)”, the binding entry was “binds”.

The record behind these values is article PMC8750349.
